Assay results as given in article PMC10480499.
No constants are given. Whether binding was seen depends on the method and setting. Binding seen in cells or lysates may run through a third protein. Some entries that bind do so weakly or less than the wild type. Where a sequence is shown, tags or fusion partners need not be part of it.

Amino acid sequences for entries named in this document (tags omitted).
UniProt Q16539: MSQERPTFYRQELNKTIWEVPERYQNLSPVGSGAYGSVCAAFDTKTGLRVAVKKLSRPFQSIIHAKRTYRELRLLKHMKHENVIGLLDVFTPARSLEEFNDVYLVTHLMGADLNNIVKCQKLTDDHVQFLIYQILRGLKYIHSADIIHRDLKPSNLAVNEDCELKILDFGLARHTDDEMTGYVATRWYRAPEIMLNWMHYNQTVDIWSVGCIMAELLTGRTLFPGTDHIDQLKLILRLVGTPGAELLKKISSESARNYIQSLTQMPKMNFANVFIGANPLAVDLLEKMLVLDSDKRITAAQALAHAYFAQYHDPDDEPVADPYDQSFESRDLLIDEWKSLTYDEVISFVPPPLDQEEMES

Molecular target: T1, FLAG-tagged LKB1 (UniProt Q15831)
T1 sequence: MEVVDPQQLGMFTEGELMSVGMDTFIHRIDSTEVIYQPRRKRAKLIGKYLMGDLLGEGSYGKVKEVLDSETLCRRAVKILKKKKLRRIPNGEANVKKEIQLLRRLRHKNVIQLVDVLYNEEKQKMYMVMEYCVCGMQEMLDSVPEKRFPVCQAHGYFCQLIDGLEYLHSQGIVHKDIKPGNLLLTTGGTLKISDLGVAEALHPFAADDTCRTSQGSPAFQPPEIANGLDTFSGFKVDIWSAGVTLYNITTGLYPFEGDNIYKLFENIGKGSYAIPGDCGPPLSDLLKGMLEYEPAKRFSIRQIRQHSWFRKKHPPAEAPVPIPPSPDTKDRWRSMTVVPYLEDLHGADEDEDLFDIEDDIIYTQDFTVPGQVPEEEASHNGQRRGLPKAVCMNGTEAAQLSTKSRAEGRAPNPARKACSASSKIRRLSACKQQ
Assay: co-IP; HepG2 cells co-transfected with Flag-LKB1 and HA-p38α MAPK for 24 h, then DMSO or 10 μM SB203580 for 24 h; NP40 lysis buffer (25 mM Tris pH 7.4, 150 mM NaCl, 5 mM EDTA, 1% NP-40); 500 μg lysate immunoprecipitated with anti-Flag antibody at 4 °C overnight, Protein A/G Sepharose; blotted with Flag-biotin and HA-biotin antibodies

Substance: HA-tagged p38α MAPK (from UniProt Q16539 1-360)
- binding: binds
